In the supplement of paper PMC12067093, “Discovery and optimisation of a covalent ligand for TRIM25 and its application to targeted protein ubiquitination” (Chemical Science, 2025):
The list shows a part of the results.

The chains behind the UniProt entries cited, without tags or fusion partners. Where a name states a change or a piece, a line headed by the entry shows the natural chain unless it says otherwise.
UniProt Q96FS4: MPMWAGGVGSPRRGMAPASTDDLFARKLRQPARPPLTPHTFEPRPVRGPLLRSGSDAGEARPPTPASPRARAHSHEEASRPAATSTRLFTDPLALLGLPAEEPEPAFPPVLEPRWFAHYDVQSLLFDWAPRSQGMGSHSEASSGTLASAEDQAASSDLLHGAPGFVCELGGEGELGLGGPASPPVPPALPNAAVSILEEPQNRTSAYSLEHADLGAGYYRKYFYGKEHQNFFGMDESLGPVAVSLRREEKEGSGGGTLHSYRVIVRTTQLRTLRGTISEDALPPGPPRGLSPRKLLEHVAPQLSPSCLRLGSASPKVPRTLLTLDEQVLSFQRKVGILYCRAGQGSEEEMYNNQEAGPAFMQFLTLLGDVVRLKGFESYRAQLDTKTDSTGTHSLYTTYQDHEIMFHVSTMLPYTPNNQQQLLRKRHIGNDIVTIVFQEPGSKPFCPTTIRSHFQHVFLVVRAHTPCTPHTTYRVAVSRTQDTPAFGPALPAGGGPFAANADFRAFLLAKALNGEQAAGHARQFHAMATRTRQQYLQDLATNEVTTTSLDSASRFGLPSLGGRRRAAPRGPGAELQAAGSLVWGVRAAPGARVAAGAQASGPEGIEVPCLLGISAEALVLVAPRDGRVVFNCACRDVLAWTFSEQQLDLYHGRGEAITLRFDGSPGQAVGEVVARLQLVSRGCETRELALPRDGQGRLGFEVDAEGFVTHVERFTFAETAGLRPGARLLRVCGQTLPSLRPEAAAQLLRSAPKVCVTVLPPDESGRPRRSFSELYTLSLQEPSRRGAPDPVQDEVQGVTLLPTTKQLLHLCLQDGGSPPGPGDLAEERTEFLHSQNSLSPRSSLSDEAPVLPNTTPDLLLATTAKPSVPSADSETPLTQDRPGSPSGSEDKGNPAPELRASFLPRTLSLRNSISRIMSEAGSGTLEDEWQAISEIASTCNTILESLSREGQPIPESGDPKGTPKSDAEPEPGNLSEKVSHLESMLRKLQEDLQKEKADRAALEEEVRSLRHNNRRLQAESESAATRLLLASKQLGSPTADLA
UniProt Q96ST3: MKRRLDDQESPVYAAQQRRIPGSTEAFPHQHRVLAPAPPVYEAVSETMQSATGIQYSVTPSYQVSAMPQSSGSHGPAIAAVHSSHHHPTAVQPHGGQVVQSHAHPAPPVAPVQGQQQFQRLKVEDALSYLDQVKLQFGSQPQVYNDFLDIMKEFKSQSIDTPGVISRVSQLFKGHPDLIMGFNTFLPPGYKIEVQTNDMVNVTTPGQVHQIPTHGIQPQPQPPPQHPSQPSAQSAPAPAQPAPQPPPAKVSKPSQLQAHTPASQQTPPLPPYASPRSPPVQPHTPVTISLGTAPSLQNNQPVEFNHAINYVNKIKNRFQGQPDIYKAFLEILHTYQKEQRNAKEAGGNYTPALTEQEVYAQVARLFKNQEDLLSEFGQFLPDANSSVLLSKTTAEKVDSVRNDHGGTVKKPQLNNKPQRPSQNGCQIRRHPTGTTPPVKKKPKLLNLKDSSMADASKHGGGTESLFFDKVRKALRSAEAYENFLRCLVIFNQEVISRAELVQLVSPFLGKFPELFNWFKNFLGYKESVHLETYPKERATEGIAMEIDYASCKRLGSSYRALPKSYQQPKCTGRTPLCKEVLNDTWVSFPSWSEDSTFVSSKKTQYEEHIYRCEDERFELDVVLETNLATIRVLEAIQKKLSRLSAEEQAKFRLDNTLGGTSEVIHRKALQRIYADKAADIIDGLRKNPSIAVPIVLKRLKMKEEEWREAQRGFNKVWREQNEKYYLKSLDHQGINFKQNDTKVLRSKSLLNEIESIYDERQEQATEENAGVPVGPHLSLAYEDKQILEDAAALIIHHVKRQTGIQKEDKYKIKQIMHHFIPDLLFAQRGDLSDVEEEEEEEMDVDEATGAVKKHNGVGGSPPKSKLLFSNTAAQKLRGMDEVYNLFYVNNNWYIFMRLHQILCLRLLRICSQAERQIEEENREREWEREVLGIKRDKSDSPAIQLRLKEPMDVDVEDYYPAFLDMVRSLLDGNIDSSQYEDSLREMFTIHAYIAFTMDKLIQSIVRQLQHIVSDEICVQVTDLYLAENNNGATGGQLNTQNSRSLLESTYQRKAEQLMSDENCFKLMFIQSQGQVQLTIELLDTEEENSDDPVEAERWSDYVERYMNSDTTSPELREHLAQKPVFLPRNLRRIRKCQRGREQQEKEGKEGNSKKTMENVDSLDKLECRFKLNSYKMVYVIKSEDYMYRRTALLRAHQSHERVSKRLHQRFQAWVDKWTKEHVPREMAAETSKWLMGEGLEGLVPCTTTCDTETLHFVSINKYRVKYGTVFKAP
UniProt P53007, whole entry, looked up: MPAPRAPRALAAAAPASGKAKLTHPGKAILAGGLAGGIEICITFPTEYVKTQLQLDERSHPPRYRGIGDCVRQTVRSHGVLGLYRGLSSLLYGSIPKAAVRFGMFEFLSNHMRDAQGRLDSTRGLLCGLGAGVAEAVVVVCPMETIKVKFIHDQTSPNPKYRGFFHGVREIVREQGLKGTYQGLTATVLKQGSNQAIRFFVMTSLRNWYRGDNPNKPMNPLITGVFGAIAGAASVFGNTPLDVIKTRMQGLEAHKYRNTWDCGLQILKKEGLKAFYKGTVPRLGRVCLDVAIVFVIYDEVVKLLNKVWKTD
UniProt Q00325: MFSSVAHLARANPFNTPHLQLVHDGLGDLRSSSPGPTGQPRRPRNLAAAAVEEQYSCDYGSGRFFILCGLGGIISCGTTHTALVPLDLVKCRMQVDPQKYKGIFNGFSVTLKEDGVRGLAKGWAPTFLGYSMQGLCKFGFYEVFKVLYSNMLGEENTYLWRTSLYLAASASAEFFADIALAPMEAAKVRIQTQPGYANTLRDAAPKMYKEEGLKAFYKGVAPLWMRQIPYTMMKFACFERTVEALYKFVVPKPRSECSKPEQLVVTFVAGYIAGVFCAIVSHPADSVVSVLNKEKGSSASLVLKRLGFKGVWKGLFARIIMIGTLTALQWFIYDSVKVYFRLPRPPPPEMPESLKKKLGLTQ
UniProt Q9Y371: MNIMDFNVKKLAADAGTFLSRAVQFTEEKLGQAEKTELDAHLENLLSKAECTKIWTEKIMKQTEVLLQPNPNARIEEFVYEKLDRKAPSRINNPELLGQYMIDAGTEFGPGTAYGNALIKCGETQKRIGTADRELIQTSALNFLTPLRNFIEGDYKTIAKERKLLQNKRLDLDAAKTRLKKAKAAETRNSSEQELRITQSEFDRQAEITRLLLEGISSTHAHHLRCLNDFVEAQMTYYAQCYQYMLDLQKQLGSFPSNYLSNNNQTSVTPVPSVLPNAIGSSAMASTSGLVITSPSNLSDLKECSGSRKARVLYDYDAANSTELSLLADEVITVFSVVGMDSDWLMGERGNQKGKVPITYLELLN
UniProt Q9UHD8: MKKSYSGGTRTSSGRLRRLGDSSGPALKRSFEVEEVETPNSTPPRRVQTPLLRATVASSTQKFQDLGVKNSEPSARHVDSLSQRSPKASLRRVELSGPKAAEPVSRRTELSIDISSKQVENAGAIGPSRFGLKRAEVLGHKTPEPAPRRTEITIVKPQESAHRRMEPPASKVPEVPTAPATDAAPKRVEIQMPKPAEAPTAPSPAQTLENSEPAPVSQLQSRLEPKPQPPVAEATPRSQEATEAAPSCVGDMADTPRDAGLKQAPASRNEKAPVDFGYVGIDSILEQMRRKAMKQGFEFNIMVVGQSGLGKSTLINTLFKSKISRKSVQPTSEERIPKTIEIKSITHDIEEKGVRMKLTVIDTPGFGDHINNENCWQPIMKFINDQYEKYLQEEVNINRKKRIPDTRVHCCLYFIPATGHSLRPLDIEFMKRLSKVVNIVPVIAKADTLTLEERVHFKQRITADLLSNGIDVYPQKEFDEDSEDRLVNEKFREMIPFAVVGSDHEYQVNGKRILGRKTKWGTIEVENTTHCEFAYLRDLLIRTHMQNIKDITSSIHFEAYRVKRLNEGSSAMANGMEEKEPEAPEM
UniProt Q8IX90, whole entry, looked up: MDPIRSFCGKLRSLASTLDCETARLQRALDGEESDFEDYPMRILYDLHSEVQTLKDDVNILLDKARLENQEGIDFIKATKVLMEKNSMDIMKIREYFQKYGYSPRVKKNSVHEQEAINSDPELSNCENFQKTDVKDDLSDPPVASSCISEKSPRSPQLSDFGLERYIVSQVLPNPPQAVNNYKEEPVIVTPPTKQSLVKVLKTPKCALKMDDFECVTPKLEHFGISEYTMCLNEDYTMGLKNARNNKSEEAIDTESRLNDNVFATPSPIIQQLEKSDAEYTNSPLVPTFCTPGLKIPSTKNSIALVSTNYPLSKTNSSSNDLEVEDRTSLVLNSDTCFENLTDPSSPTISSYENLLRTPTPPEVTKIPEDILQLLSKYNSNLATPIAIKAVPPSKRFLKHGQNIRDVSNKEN
UniProt Q149N8: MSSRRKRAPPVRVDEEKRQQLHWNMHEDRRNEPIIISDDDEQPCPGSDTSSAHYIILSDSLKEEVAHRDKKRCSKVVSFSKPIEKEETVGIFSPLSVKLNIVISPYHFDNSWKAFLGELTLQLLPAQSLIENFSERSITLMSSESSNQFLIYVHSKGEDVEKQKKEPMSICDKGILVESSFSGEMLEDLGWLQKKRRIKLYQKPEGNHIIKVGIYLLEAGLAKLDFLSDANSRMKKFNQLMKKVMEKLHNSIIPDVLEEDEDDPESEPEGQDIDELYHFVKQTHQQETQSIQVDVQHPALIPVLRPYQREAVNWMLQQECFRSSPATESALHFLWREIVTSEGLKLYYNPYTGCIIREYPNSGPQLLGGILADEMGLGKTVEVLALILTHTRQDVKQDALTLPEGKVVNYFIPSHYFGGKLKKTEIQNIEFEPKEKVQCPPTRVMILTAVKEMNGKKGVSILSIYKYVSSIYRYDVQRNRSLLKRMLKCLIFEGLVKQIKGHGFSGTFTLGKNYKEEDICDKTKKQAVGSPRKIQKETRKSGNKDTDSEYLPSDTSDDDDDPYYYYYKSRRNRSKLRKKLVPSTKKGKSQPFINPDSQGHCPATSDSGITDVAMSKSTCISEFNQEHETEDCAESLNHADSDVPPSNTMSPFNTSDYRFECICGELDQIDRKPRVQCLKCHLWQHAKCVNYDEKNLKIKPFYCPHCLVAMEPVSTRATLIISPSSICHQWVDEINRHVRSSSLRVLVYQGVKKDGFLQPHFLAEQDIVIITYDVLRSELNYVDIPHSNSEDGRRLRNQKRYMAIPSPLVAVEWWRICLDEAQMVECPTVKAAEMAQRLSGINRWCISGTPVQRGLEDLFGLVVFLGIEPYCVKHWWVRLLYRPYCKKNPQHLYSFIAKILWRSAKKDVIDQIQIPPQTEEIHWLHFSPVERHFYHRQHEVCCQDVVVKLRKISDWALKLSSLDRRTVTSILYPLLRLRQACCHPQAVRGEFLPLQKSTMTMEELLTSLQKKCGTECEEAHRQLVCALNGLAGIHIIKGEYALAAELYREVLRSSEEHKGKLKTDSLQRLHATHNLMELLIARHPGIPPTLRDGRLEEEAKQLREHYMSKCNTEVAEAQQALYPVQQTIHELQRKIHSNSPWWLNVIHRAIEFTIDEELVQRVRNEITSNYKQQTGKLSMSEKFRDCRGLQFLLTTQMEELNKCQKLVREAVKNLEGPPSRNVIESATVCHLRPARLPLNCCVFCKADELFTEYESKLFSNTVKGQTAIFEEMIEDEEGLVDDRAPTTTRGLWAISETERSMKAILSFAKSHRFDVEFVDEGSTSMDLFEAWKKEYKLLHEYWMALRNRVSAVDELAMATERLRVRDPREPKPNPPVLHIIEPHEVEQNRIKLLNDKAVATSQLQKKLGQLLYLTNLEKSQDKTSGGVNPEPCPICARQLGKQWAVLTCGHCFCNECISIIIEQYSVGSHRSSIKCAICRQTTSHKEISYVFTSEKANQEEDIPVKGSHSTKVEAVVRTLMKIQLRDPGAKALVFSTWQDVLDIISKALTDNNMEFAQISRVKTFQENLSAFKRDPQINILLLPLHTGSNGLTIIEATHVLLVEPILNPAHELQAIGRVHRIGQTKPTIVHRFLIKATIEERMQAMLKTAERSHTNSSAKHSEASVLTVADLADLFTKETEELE
UniProt Q15428: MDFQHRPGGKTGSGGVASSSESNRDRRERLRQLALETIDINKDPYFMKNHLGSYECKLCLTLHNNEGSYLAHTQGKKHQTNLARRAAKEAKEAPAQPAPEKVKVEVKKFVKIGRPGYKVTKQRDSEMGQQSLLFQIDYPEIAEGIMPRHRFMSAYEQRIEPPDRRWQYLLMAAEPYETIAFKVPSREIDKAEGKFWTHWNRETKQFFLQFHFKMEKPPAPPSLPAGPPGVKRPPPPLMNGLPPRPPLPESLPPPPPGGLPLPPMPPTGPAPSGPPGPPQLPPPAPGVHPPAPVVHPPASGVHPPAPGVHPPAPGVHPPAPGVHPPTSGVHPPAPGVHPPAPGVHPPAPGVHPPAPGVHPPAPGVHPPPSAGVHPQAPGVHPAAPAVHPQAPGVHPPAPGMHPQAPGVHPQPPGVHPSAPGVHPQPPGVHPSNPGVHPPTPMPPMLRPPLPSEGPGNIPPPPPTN

Compound: CC1Cc2ccccc2N1C(=O)C1CCCN(C1)C(=O)CCl (mixture of isomers) [TRIM25 ligand 11 (diastereomer mixture)]
Test: probe-labelled cysteine peptide fold change vs DMSO (competition) (log2 fold change); higher = less target engagement (more negative = stronger competition)
Conditions: THP-1, incubation time: 4 h
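Also: competitive chemoproteomic profiling in live THP-1 cells with an iodoacetamide desthiobiotin (IA-DTB) probe, comparing probe-labelled peptide intensities in compound-treated cells against DMSO-treated controls.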

Target	probe-labelled cysteine peptide fold change (10 µM)	probe-labelled cysteine peptide fold change (50 µM)
SETDB1_Q15047_731_GVFINTGPEFLVGCDCK (UniProt Q15047)	0.0321	-0.0124
SIPA1_Q96FS4_467_AHTPCTPHTTYR (UniProt Q96FS4)	0.187	0.0943
SETD2_Q9BYW2_836_ISSNSFMNVHLESKPVICDSR (UniProt Q9BYW2)	-0.0203	-0.186
SIGIRR_Q6IA17_174_LYDAYVSYSDCPEDR (UniProt Q6IA17)	0.24	-0.151
SIN3A_Q96ST3_425_KPQLNNKPQRPSQNGCQIR (UniProt Q96ST3)	-0.14	-0.255
SLC12A2_P55011_791_NFRPQCLVMTGAPNSRPALLHLVHDFTK (UniProt P55011)	-0.125	0.0114
SGO2_Q562F6_798_HGHDMQPACQNDSK (UniProt Q562F6)	-0.0181	-0.296
SLC25A1_P53007_70_GIGDCVR (UniProt P53007)	0.0162	0.108
SGO1_Q5FBB7_44_SFIAAPCQIITNTSTLLK (UniProt Q5FBB7)	0.065	-0.237
SH2B2_O14492_333_VASCSCELLTDAVDLPRPPETTAVGAVVTAPHSR (UniProt O14492)	0.196	0.186
SIRT5_Q9NXA8_293+303_FHFQGPCGTTLPEALACHENETVS (UniProt Q9NXA8)	0.203	-0.0498
SLC25A3_Q00325-2_67+75_YYALCGFGGVLSCGLTHTAVVPLDLVK (UniProt Q00325)	-0.011	0.117
SKIV2L_Q15477_1014_KLEELIQGAQCVHSPR (UniProt Q15477)	0.014	-0.00798
SIK3_Q9Y2K2_121_MLCHPHIIR (UniProt Q9Y2K2)	-0.132	0.0404
SHC1_P29353-6_416_QMPPPPPCPAGR (UniProt P29353)	-0.0913	-0.421
SLC25A10_Q9UBX3_181_GALVTVGQLSCYDQAK (UniProt Q9UBX3)	0.0626	0.168
SGTA_O43765_153_AICIDPAYSK (UniProt O43765)	0.0521	0.0381
SEPT6_Q14141_42_SVSQGFCFNILCVGETGLGK (UniProt Q14141)	0.182	0.17
SLC25A3_Q00325-2_75_YYALCGFGGVLSCGLTHTAVVPLDLVK (UniProt Q00325)	-0.0599	-0.0437
SHMT2_P34897_91_AALEALGSCLNNK (UniProt P34897)	0.0184	-0.00736
SH3GLB1_Q9Y371_121_CGETQKR (UniProt Q9Y371)	-0.113	-0.0123

Target	probe-labelled cysteine peptide fold change (10 µM)	probe-labelled cysteine peptide fold change (50 µM)
SIRT2_Q8IXJ6_221_CEDCQSLVKPDIVFFGESLPAR (UniProt Q8IXJ6)	0.0619	0.0195
SLC15A4_Q8N697_269_ILTYSCCSQK (UniProt Q8N697)	-0.00859	-0.114
SETX_Q7Z333_2384+2389_DCVIVTCVR (UniProt Q7Z333)	0.0808	0.176
SKIV2L_Q15477_877_VFTTLVLCDK (UniProt Q15477)	0.107	0.137
SEPT9_Q9UHD8_531_TKWGTIEVENTTHCEFAYLR (UniProt Q9UHD8)	-0.28	-0.248
SFXN2_Q96NB2_189_WVPFAAVAAANCVNIPMMR (UniProt Q96NB2)	0.408	-0.0256
SETD3_Q86TU7_36_CSSPAPGPGK (UniProt Q86TU7)	-0.0972	-0.145
SLC1A5_Q15758_467_SCTVLNVEGDALGAGLLQNYVDR (UniProt Q15758)	-0.0169	0.588
SIRT6_Q8N6T7_141_LAELHGNMFVEECAK (UniProt Q8N6T7)	0.087	0.00561
SH3GLB1_Q9Y371_304_ECSGSR (UniProt Q9Y371)	-0.137	0.575
SERPINB8_P50452_348_FCADHPFLFFIR (UniProt P50452)	-0.0885	0.0312
SLC25A16_P16260_246_THVNLLCGGVAGAIAQTISYPFDVTR (UniProt P16260)	0.365	0.384
SKA3_Q8IX90_147_TDVKDDLSDPPVASSCISEK (UniProt Q8IX90)	-0.288	-0.238
SHPRH_Q149N8_1025_QLVCALNGLAGIHIIK (UniProt Q149N8)	0.0951	-0.274
SLC25A12_O75746_563_AGQTTYSGVIDCFRK (UniProt O75746)	-0.194	-0.0537
SFSWAP_Q12872_307_CNRLEELMK (UniProt Q12872)	-0.129	-0.292
SLC12A4_Q9UP95_817_CTTAAHLALLVPK (UniProt Q9UP95)	0.23	0.117
SETD2_Q9BYW2_2532_NPEDLECNENVK (UniProt Q9BYW2)	0.0467	0.419
SKP1_P63208_160_ENQWCEEK (UniProt P63208)	-0.0605	-0.129
SFMBT1_Q9UHJ3_365_QCGAEAAPQR (UniProt Q9UHJ3)	0.0543	-0.153
SLC25A5_P05141_257_KGTDIMYTGTLDCWR (UniProt P05141)	-0.0817	-0.062

Complete entries from above. Values in the order: probe-labelled cysteine peptide fold change (10 µM)	probe-labelled cysteine peptide fold change (50 µM)
SFXN2_Q96NB2_189_WVPFAAVAAANCVNIPMMR (UniProt Q96NB2) reads 0.408	-0.0256
SETD2_Q9BYW2_2532_NPEDLECNENVK (UniProt Q9BYW2) reads 0.0467	0.419
SH3GLB1_Q9Y371_304_ECSGSR (UniProt Q9Y371) reads -0.137	0.575
SEPT9_Q9UHD8_531_TKWGTIEVENTTHCEFAYLR (UniProt Q9UHD8) reads -0.28	-0.248

The results go on:

Target	probe-labelled cysteine peptide fold change (10 µM)	probe-labelled cysteine peptide fold change (50 µM)
SF3A3_Q12874_411_LHGLNINYNCEICGNYTYR (UniProt Q12874)	0.189	0.382
SF3B1_O75533_1035_VQENCIDLVGR (UniProt O75533)	-0.0917	0.101
SIPA1_Q96FS4_811_QLLHLCLQDGGSPPGPGDLAEER (UniProt Q96FS4)	0.0202	0.0931
SKIV2L_Q15477_247_GDTVSASPCSAPLAR (UniProt Q15477)	-0.0294	-0.219
SEPT7_Q16181_160_VQCCLYFIAPSGHGLK (UniProt Q16181)	0.2	-0.00708
SHMT1_P34896_68_AVLEALGSCLNNK (UniProt P34896)	0.00575	-0.024
SIRPA_P78324_170_ATPQHTVSFTCESHGFSPR (UniProt P78324)	0.355	0.211
SFMBT2_Q5VUG0_796_CPPTKPEGTEDTKQEEEERLVLESNPLEWTVTDVVR (UniProt Q5VUG0)	-0.043	-0.0391
SETX_Q7Z333_1398_AGSHTAQNSDIFVPESDRSDYNCTGGTEVLANSNRK (UniProt Q7Z333)	-0.152	-0.392
SLC27A1_Q6PCB7_204_FCSGDLGPEGILPDTHLLDPLLK (UniProt Q6PCB7)	0.156	0.0995
SHPRH_Q149N8_1435_TSGGVNPEPCPICAR (UniProt Q149N8)	0.0553	-0.0373
SH3RF1_Q7Z6J0_93_QRPWKPGPGGGSGTNCTNALR (UniProt Q7Z6J0)	-0.0835	-0.203
SLC25A10_Q9UBX3_22+23_WYFGGLASCGAACCTHPLDLLK (UniProt Q9UBX3)	0.136	0.171
SIPA1_Q96FS4_632_VVFNCACR (UniProt Q96FS4)	0.106	0.266
SLC25A1_P53007_262_NTWDCGLQILKK (UniProt P53007)	-0.253	-0.113
SF3A3_Q12874_437_CLGIPNTAHFANVTQIEDAVSLWAK (UniProt Q12874)	0.185	-0.0203
SETDB1_Q15047_329_TWEDIEDISCR (UniProt Q15047)	0.24	0.218
SLC25A13_Q9UJS0_503_DIPFSAIYFPCYAHVK (UniProt Q9UJS0)	0.0169	0.0755
SKA3_Q8IX90_215_MDDFECVTPK (UniProt Q8IX90)	-0.0875	-0.3
SERBP1_Q8NC51_11_PGHLQEGFGCVVTNRFDQLFDDESDPFEVLK (UniProt Q8NC51)	-0.323	-0.648
SIKE1_Q9BRV8_146_ICEMGEVMR (UniProt Q9BRV8)	-0.00677	-0.0739

Target	probe-labelled cysteine peptide fold change (10 µM)	probe-labelled cysteine peptide fold change (50 µM)
SERPINB6_P35237_100_SCDFLSSFR (UniProt P35237)	0.00189	-0.0617
SF1_Q15637_279_SITNTTVCTK (UniProt Q15637)	0.0565	0.0538
SIPA1L3_O60292_597_DALEYVIPELNIHCLR (UniProt O60292)	0.292	0.0602
SIL1_Q9H173_408_VLQTLGVLLTTCR (UniProt Q9H173)	0.0793	0.848
SIN3A_Q96ST3_1063_AEQLMSDENCFK (UniProt Q96ST3)	0.212	0.199
SETX_Q7Z333_1398_AGSHTAQNSDIFVPESDRSDYNCTGGTEVLANSNR (UniProt Q7Z333)	-0.136	-0.652
SF3B3_Q15393_1156_SEHPPLCGR (UniProt Q15393)	0.115	-0.108
SEPT9_Q9UHD8_411_VHCCLYFIPATGHSLRPLDIEFMK (UniProt Q9UHD8)	-0.0102	0.137
SETX_Q7Z333_1656_NSCNVLHPQSPNNSNR (UniProt Q7Z333)	0.0238	-0.178
SLC25A19_Q9HC21_124_EFSVHFVCGGLAACMATLTVHPVDVLR (UniProt Q9HC21)	0.0463	0.118
SETD2_Q9BYW2_1766_LTCLELIQNTHSQSCLK (UniProt Q9BYW2)	0.129	0.25
SF3B3_Q15393_589_EMSADVVCMSLANVPPGEQR (UniProt Q15393)	-0.0403	-0.0588
SF3A1_Q15459_244_EAENPREVLDQVCYR (UniProt Q15459)	-0.127	-0.15
SF3A2_Q15428_59_LCLTLHNNEGSYLAHTQGK (UniProt Q15428)	0.00986	0.0211
SETX_Q7Z333_2630_CDDPEEELCHR (UniProt Q7Z333)	0.0321	-0.198
SLC25A10_Q9UBX3_240_LMNSKGEYQGVFHCAVETAK (UniProt Q9UBX3)	-0.467	-0.199
SF3A2_Q15428_56_NHLGSYECK (UniProt Q15428)	-0.0327	0.00095
SF3B3_Q15393_547_CAVNQR (UniProt Q15393)	-0.0751	0.161
SLC25A10_Q9UBX3_69_TDGILALYSGLSASLCR (UniProt Q9UBX3)	0.0966	0.615

Some of the entries so far, bar-delimited:
Target | probe-labelled cysteine peptide fold change (10 µM) | probe-labelled cysteine peptide fold change (50 µM)
SF3A2_Q15428_59_LCLTLHNNEGSYLAHTQGK (UniProt Q15428) | 0.00986 | 0.0211
SETX_Q7Z333_2630_CDDPEEELCHR (UniProt Q7Z333) | 0.0321 | -0.198
